Data as given in PubChem BioAssay AID743454 (Peter MacCallum Cancer Centre, 2014)
The whole screen tested about 18,000 reagents; shown is an unselected part. Over the whole deposit, 450 (2.5%) were called active. 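Single biological run; no consistent viability z cut-off exists, so the class columns, not z-scores, define the calls.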 Reagent sequences are not shown.

Screen: 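Genes whose loss kills vorinostat-resistant colon cancer cells under vorinostat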 (primary screen)
System: human HCT116-VR colon cancer cells, selected for vorinostat resistance
Reagent: siRNA pool against human genes, 40 nM siRNA pool
Timing: vorinostat for 24 h, read-out about 72 h after transfection
Conditions: vorinostat at 2.5 µM final
Read-out: 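Two measures, CellTiter-Fluor viability and luminescent caspase 3/7 activity, each as fold change against same-plate mock wells, mean of duplicates, then screen-wide robust z-score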
Reading the numbers: viability robust z-score: higher = more viable cells than screen typical; caspase robust z-score: higher = more caspase 3/7 activity than screen typical
Active means: 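Hits are knock-downs in viability class RV1/RV2 or caspase class CA1/CA2, excluding ones that killed cells in the no-drug cell-count arm; hits then retested with single siRNAs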

| viability hit class | caspase hit class | viability robust z-score | caspase robust z-score | outcome | gene |
| --- | --- | --- | --- | --- | --- |
| no change | no change | -0.48 | -0.36 | inactive | ESYT3 (extended synaptotagmin 3) |
| no change | no change | 1.73 | -0.06 | inactive | LRATD1 (LRAT domain containing 1) |
| no change | no change | 0.66 | 0.9 | inactive | SERPINF1 (serpin family F member 1) |
| no change | no change | -0.67 | 2.73 | inactive | CRHBP (corticotropin releasing hormone binding protein) |
| no change | no change | 0.24 | 0.06 | inactive | CDCA2 (cell division cycle associated 2) |
| no change | no change | 0.77 | -0.82 | inactive | IGSF5 (immunoglobulin superfamily member 5) |
| no change | no change | 0.57 | -0.31 | inactive | ADGRV1 (adhesion G protein-coupled receptor V1) |
| no change | no change | -0.83 | 1.47 | inactive | PITPNM3 (PITPNM family member 3) |
| no change | no change | 0.22 | 0.84 | inactive | APOLD1 (apolipoprotein L domain containing 1) |
| no change | no change | 0.56 | -0.39 | inactive | CBLL1 (Cbl proto-oncogene like 1) |
| no change | no change | -1.36 | 5 | inactive | ETV3L (ETS variant transcription factor 3 like) |
| no change | no change | 1.81 | -0.54 | inactive | PDE4B (phosphodiesterase 4B) |
| no change | no change | -1.34 | -0.84 | inactive | LOC90462 (retired record) |
| RV2 (reduced viability) | no change | -3.85 | 3.27 | active | CES3 (carboxylesterase 3) |
| no change | no change | -0.03 | 0.28 | inactive | ITPKA (inositol-trisphosphate 3-kinase A) |
| no change | no change | -0.5 | 3.06 | inactive | ZNF563 (zinc finger protein 563) |
| no change | no change | -0.24 | 1.84 | inactive | RFTN1 (raftlin, lipid raft linker 1) |
| no change | no change | 0.54 | 0.9 | inactive | PAX5 (paired box 5) |
| no change | no change | 0.25 | -0.9 | inactive | SUCO (SUN domain containing ossification factor) |
| no change | no change | -0.96 | -0.74 | inactive | MYL5 (myosin light chain 5) |
| no change | no change | -1.33 | -1.01 | inactive | TPRKB (TP53RK binding protein) |
| no change | no change | 0.2 | -0.28 | inactive | IL20RA (interleukin 20 receptor subunit alpha) |
| no change | no change | -0.16 | 3.93 | inactive | LRRC47 (leucine rich repeat containing 47) |

3 entries from above, ordered by “caspase robust z-score”, ascending:
| viability hit class | caspase hit class | viability robust z-score | caspase robust z-score | outcome | gene |
| --- | --- | --- | --- | --- | --- |
| no change | no change | -1.34 | -0.84 | inactive | LOC90462 (retired record) |
| no change | no change | 1.81 | -0.54 | inactive | PDE4B (phosphodiesterase 4B) |
| no change | no change | -1.36 | 5 | inactive | ETV3L (ETS variant transcription factor 3 like) |
